Some of the results follow.
Columns and labels:
Assay in all cases: log2 fold change, soluble protein after heating vs DMSO (PISA); higher = thermal stabilisation; K562 lysate, 10 uM; active = over 0.2 and 3.5 SD of the protein, either way, in both replicates (recomputed)
alvocidib = compound: CN1CC[C@H](c2c(O)cc(O)c3c(=O)cc(-c4ccccc4Cl)oc23)[C@H](O)C1 [alvocidib]
How it was run: (§1)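 Dounce homogenisation of K562 pellets in PBS pH 7.4 with 1 mM MgCl2 produced a crude extract, used at 1 mg/mL protein. Exposure to 10 μM compound lasted 30 min, and aliquots were then heated for 3 min across 48°C-58°C, pooled and brought to 0.5% NP-40 at 4°C. The supernatant after 21,000xg for 90 min was quantified by TMTpro 16plex LC-MS/MS with channel sums equalised. Duplicate values are given as log-two fold change in thermal stability relative to solvent controls.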

The chains behind the UniProt entries cited, without tags or fusion partners. Where a name states a change or a piece, a line headed by the entry shows the natural chain unless it says otherwise.
UniProt Q86SF2: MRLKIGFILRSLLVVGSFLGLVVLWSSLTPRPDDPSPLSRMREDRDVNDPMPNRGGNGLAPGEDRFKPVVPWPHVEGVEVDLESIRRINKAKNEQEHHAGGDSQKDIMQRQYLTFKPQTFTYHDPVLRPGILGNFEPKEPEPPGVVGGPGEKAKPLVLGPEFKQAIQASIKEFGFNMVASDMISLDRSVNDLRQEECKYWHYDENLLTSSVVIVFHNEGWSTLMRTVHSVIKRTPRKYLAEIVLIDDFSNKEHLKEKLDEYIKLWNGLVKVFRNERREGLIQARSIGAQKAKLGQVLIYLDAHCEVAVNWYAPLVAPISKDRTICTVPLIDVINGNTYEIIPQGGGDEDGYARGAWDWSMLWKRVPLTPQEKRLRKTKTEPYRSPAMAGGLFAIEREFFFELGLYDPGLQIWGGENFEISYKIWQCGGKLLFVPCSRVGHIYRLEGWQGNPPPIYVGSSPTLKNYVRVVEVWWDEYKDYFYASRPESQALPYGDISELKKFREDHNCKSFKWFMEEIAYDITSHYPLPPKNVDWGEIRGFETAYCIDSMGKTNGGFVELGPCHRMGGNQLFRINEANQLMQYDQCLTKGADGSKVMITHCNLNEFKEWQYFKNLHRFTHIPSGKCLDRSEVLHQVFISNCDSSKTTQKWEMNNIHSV
UniProt Q96C23: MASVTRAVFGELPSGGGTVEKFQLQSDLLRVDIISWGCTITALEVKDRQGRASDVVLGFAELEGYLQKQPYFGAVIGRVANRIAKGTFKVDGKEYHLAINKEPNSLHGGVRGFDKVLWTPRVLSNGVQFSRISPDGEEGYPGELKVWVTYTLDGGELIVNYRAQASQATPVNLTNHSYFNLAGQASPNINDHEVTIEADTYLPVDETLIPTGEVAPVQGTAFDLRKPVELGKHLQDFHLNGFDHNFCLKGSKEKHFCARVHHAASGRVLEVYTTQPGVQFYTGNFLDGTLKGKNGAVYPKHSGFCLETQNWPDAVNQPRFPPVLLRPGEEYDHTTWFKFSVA
UniProt O14893: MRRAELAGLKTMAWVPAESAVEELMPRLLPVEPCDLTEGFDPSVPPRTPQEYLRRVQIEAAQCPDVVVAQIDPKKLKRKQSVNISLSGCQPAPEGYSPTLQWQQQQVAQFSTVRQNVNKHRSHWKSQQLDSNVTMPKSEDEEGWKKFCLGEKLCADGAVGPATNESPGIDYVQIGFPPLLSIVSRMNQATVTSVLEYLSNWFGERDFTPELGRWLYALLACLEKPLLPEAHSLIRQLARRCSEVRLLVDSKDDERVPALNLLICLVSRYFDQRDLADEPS
UniProt Q8IWJ2: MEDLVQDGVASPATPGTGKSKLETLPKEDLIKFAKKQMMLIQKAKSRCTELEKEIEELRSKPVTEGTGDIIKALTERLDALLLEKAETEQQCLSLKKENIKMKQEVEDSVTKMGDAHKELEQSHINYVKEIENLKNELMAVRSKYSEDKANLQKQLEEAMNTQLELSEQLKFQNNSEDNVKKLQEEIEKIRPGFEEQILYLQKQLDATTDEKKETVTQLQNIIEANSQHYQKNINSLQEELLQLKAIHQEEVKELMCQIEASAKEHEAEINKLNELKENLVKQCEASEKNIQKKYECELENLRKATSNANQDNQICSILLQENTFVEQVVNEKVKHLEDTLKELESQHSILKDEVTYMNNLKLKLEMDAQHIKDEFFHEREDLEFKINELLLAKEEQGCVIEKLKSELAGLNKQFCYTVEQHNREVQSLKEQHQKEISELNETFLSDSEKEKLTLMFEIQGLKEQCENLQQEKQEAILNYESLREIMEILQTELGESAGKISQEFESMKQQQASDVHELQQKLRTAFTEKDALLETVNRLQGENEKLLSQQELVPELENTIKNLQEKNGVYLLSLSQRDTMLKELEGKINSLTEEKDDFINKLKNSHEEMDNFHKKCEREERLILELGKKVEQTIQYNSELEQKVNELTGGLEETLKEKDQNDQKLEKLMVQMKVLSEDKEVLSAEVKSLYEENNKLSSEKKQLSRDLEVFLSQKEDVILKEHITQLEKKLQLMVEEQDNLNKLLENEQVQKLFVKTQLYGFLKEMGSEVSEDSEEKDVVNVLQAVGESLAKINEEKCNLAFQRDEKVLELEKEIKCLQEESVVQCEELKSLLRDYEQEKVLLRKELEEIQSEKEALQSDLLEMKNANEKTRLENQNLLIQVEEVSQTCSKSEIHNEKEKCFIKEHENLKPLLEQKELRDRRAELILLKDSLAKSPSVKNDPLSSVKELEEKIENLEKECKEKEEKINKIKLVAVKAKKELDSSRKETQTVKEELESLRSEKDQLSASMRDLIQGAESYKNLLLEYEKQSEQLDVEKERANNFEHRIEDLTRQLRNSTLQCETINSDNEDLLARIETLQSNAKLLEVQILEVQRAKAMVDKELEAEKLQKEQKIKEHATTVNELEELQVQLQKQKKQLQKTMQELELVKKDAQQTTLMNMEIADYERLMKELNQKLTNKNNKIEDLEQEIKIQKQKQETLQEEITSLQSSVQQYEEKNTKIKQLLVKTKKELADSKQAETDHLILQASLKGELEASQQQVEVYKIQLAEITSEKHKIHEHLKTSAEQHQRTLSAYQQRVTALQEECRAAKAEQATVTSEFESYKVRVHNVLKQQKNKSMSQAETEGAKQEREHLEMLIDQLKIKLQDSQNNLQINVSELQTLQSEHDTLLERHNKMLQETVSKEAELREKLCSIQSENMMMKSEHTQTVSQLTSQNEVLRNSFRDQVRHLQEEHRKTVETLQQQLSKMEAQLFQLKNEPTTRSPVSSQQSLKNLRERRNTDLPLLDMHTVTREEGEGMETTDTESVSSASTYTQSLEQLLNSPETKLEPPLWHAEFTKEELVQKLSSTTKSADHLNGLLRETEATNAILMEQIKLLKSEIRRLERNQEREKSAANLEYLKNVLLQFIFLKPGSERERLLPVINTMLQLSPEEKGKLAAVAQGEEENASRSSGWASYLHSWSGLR
UniProt P0CL80: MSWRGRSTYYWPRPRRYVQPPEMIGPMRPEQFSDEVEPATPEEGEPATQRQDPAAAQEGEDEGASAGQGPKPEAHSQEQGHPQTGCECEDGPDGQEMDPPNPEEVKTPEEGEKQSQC
UniProt Q9UJY4: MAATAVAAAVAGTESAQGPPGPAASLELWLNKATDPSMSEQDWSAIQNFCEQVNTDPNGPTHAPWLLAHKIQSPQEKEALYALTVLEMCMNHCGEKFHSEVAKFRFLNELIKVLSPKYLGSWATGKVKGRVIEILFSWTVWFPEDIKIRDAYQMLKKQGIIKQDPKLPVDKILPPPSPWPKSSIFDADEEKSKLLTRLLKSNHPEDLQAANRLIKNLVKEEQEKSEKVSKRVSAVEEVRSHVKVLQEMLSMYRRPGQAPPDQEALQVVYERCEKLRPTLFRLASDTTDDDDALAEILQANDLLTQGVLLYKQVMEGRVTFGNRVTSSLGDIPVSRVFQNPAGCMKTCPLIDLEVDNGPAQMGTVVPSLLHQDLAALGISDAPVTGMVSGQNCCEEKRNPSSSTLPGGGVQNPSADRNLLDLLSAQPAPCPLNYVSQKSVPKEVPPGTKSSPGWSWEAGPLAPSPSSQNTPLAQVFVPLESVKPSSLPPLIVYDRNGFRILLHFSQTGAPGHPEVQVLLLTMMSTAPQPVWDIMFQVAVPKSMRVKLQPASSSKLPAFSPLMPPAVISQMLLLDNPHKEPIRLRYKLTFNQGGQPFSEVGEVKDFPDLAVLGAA
UniProt Q06546: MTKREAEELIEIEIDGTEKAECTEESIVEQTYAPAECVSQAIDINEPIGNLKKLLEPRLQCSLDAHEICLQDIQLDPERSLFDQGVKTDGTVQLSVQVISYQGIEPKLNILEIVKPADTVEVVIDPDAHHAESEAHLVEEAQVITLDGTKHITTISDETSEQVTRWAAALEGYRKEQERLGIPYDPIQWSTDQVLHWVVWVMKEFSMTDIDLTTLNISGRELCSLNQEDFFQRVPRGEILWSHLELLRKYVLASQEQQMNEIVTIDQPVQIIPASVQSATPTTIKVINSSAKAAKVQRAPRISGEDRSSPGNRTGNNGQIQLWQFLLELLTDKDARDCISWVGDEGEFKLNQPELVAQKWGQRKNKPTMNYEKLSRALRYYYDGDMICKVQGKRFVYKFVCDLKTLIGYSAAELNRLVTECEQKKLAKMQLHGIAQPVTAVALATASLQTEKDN
UniProt P55789: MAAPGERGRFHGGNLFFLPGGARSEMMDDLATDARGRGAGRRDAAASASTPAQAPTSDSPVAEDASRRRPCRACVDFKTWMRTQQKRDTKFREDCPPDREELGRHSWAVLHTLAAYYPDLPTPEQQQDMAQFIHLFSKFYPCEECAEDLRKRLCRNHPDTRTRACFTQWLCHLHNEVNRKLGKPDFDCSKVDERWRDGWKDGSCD
UniProt Q8IY81: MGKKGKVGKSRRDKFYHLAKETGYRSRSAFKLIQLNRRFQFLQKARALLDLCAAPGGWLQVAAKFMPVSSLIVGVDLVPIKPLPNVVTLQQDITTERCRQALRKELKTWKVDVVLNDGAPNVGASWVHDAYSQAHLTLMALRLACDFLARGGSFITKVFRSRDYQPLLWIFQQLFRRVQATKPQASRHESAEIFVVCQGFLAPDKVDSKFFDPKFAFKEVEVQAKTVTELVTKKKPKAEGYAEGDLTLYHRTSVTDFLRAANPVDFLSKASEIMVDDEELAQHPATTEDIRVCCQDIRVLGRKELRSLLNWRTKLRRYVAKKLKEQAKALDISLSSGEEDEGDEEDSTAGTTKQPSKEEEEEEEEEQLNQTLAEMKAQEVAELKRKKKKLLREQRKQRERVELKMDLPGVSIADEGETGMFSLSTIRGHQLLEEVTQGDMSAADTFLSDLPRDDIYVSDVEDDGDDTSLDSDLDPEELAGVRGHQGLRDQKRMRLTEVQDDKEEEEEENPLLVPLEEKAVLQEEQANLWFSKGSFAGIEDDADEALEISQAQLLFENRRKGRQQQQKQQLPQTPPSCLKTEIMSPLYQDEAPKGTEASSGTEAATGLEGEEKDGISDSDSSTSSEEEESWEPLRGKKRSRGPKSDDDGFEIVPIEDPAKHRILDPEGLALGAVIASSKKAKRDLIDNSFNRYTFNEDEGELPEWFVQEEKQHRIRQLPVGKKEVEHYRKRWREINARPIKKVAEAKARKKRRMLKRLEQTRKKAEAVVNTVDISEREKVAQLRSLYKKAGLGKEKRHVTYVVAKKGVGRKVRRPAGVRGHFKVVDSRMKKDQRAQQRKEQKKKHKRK
UniProt Q96AE4: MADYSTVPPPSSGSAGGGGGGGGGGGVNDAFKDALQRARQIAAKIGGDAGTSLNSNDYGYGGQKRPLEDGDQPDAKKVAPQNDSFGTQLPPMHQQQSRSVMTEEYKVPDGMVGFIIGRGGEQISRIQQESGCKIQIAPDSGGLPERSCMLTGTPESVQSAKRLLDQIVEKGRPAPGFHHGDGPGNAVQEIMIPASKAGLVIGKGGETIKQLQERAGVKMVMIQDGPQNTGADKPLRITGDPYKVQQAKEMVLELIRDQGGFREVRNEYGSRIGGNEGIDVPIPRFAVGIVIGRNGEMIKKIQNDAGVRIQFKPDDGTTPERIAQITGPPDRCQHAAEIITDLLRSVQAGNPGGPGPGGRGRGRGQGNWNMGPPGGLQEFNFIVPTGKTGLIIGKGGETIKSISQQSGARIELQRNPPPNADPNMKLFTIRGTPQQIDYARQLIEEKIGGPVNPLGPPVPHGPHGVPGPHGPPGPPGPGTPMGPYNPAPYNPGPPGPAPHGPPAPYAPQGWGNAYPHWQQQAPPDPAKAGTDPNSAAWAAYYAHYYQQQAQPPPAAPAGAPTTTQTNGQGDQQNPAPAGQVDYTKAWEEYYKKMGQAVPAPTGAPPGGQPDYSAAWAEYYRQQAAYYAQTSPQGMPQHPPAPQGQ
UniProt Q9NXN4: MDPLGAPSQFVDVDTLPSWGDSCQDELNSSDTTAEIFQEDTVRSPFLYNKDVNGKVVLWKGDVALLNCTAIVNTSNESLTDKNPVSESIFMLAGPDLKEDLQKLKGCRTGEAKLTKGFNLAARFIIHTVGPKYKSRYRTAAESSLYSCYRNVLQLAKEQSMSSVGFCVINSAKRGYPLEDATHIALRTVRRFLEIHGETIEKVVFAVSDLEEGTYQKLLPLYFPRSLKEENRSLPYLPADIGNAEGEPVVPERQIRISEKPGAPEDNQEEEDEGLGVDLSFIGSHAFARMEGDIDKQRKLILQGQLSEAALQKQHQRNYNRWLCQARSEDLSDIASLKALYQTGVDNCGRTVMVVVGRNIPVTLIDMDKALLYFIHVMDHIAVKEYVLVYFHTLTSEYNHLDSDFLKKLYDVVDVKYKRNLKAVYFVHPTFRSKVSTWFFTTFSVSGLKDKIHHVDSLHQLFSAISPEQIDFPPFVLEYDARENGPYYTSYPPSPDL

Tubastatin A = compound: CN1CCc2c(c3ccccc3n2Cc2ccc(C(=O)NO)cc2)C1 [Tubastatin A]
How it was run: as §1

[1] = compound: CNC(=O)C1=CC=CC=C1NC2=NC(=NC=C2Cl)NC3=C(C=C(C=C3)N4CCOCC4)OC
How it was run: as §1

defactinib = compound: CNC(=O)c1ccc(Nc2ncc(C(F)(F)F)c(NCc3nccnc3N(C)S(C)(=O)=O)n2)cc1 [defactinib]
How it was run: as §1

[2] = compound: CNc1nc(-c2ccc3c(N)n[nH]c3c2)cc(N2C[C@@H](C(=O)NC3CCCCC3)CC[C@H]2C)n1
How it was run: as §1

encorafenib = compound: COC(=O)N[C@@H](C)CNc1nccc(-c2cn(C(C)C)nc2-c2cc(Cl)cc(NS(C)(=O)=O)c2F)n1 [encorafenib]
How it was run: as §1

[3] = compound: COC(=O)[C@H](CCSC)NC(=O)C1=C(C=C(C=C1)NC[C@H](CS)N)C2=CC=CC=C2
How it was run: as §1

alisertib = compound: COc1cc(Nc2ncc3c(n2)-c2ccc(Cl)cc2C(c2c(F)cccc2OC)=NC3)ccc1C(=O)O [alisertib]
How it was run: as §1

[4] = compound: COc1cc2nc(-c3cc(F)ccc3O)nc(N[C@@H]3CNC[C@H]3C(C)(C)O)c2cc1OC
How it was run: as §1

gefitinib = compound: COc1cc2ncnc(Nc3ccc(F)c(Cl)c3)c2cc1OCCCN1CCOCC1 [gefitinib]
How it was run: as §1

lapatinib = compound: CS(=O)(=O)CCNCc1ccc(-c2ccc3ncnc(Nc4ccc(OCc5cccc(F)c5)c(Cl)c4)c3c2)o1 [lapatinib]
How it was run: as §1

pictilisib = compound: CS(=O)(=O)N1CCN(Cc2cc3nc(-c4cccc5[nH]ncc45)nc(N4CCOCC4)c3s2)CC1 [pictilisib]
How it was run: as §1

crizotinib = compound: C[C@@H](Oc1cc(-c2cnn(C3CCNCC3)c2)cnc1N)c1c(Cl)ccc(F)c1Cl [crizotinib]
How it was run: as §1

[5] = compound: C[C@H](C1=CC=C(C=C1)C(=O)NC2=C3C=CNC3=NC=C2)N
How it was run: as §1

duvelisib = compound: C[C@H](Nc1ncnc2nc[nH]c12)c1cc2cccc(Cl)c2c(=O)n1-c1ccccc1 [duvelisib]
How it was run: as §1

gandotinib = compound: Cc1cc(Nc2cc(CN3CCOCC3)c3nc(C)c(Cc4ccc(Cl)cc4F)n3n2)n[nH]1 [gandotinib]
How it was run: as §1

tozasertib = compound: Cc1cc(Nc2cc(N3CCN(C)CC3)nc(Sc3ccc(NC(=O)C4CC4)cc3)n2)n[nH]1 [tozasertib]
How it was run: as §1

doramapimod = compound: Cc1ccc(-n2nc(C(C)(C)C)cc2NC(=O)Nc2ccc(OCCN3CCOCC3)c3ccccc23)cc1 [doramapimod]
How it was run: as §1

bafetinib = compound: Cc1ccc(NC(=O)c2ccc(CN3CC[C@H](N(C)C)C3)c(C(F)(F)F)c2)cc1Nc1nccc(-c2cncnc2)n1 [bafetinib]
How it was run: as §1

[6] = compound: Cc1cccc(CC(=O)N2CCc3c2ccc(-c2cn(C)c4ncnc(N)c24)c3F)n1
How it was run: as §1

Measured: log2 fold change

GALNT7 (UniProt Q86SF2)
inactive: alvocidib 0.019 | Tubastatin A 0.037 | [1] 0.011 | defactinib 0.023 | [2] 0.025 | encorafenib 0.007 | [3] -0.058 | alisertib -0.029 | [4] 0.001 | gefitinib -0.042 | lapatinib 0.006 | pictilisib -0.026 | crizotinib -0.012 | [5] 0.163 | duvelisib -0.011 | gandotinib -0.011 | tozasertib -0.006 | doramapimod -0.027 | bafetinib 0.034 | [6] -0.065

GALM (UniProt Q96C23)
inactive: alvocidib -0.023 | Tubastatin A 0.015 | [1] -0.016 | defactinib -0.024 | [2] 0.009 | encorafenib -0.019 | [3] 0.056 | alisertib -0.028 | [4] -0.013 | gefitinib 0.009 | lapatinib 0.007 | pictilisib 0.012 | crizotinib -0.051 | [5] -0.01 | duvelisib 0.01 | gandotinib -0.006 | tozasertib 0.061 | doramapimod -0.006 | bafetinib 0.058 | [6] 0.037

GEMIN2 (UniProt O14893)
inactive: alvocidib 0.034 | Tubastatin A -0.053 | [1] 0.001 | defactinib -0.006 | [2] 0.013 | encorafenib 0.095 | [3] -0.009 | alisertib -0.017 | [4] 0.009 | gefitinib -0.1 | lapatinib -0.025 | pictilisib -0.029 | crizotinib 0.059 | [5] -0.12 | duvelisib 0.075 | gandotinib 0 | tozasertib -0.021 | doramapimod -0.092 | bafetinib -0.053 | [6] 0.139

GCC2 (UniProt Q8IWJ2)
inactive: alvocidib -0.031 | Tubastatin A -0.016 | [1] 0.027 | defactinib -0.015 | [2] 0.017 | encorafenib 0.031 | [3] -0.017 | alisertib -0.016 | [4] -0.006 | gefitinib 0.006 | lapatinib 0.015 | pictilisib 0.004 | crizotinib 0.001 | [5] -0.054 | duvelisib 0.012 | gandotinib 0.045 | tozasertib 0.008 | doramapimod 0.046 | bafetinib -0.025 | [6] 0.029

GAGE12F (UniProt P0CL80)
inactive: alvocidib 0.066 | Tubastatin A 0.081 | [1] 0.082 | defactinib 0.145 | [2] 0.062 | encorafenib 0.037 | [3] -0.207 | alisertib 0.072 | [4] 0 | gefitinib -0.054 | lapatinib 0.065 | pictilisib -0.03 | crizotinib 0.01 | [5] 0.024 | duvelisib 0.056 | gandotinib -0.11 | tozasertib -0.045 | doramapimod -0.012 | bafetinib 0.032 | [6] -0.092

Quoted from the results shown (2 entries):
GALM (UniProt Q96C23)
inactive: alvocidib -0.023 | Tubastatin A 0.015 | [1] -0.016 | defactinib -0.024 | [2] 0.009 | encorafenib -0.019 | [3] 0.056 | alisertib -0.028 | [4] -0.013 | gefitinib 0.009 | lapatinib 0.007 | pictilisib 0.012 | crizotinib -0.051 | [5] -0.01 | duvelisib 0.01 | gandotinib -0.006 | tozasertib 0.061 | doramapimod -0.006 | bafetinib 0.058 | [6] 0.037

GEMIN2 (UniProt O14893)
inactive: alvocidib 0.034 | Tubastatin A -0.053 | [1] 0.001 | defactinib -0.006 | [2] 0.013 | encorafenib 0.095 | [3] -0.009 | alisertib -0.017 | [4] 0.009 | gefitinib -0.1 | lapatinib -0.025 | pictilisib -0.029 | crizotinib 0.059 | [5] -0.12 | duvelisib 0.075 | gandotinib 0 | tozasertib -0.021 | doramapimod -0.092 | bafetinib -0.053 | [6] 0.139

(further entries)

GGA2 (UniProt Q9UJY4)
inactive: alvocidib 0.002 | Tubastatin A -0.085 | [1] 0.003 | defactinib -0.029 | [2] -0.018 | encorafenib 0.002 | [3] 0.01 | alisertib 0.038 | [4] 0.023 | gefitinib -0.025 | lapatinib -0.024 | pictilisib -0.037 | crizotinib -0.029 | [5] 0.023 | duvelisib -0.002 | gandotinib -0.131 | tozasertib 0.007 | doramapimod -0.024 | bafetinib -0.046 | [6] -0.004

FRG1 (UniProt Q14331)
inactive: alvocidib 0.003 | Tubastatin A -0.011 | [1] 0.075 | defactinib -0.011 | [2] 0.094 | encorafenib 0.011 | [3] 0.018 | alisertib -0.013 | [4] -0.01 | gefitinib 0.079 | lapatinib -0.039 | pictilisib 0.002 | crizotinib 0.053 | [5] -0.009 | duvelisib -0.019 | gandotinib 0.014 | tozasertib 0.015 | doramapimod -0.041 | bafetinib -0.024 | [6] -0.022

GABPA (UniProt Q06546)
inactive: alvocidib -0.044 | Tubastatin A -0.068 | [1] 0.009 | defactinib 0.025 | [2] 0.024 | encorafenib 0.019 | [3] 0.051 | alisertib 0.01 | [4] -0.003 | gefitinib -0.011 | lapatinib -0.012 | pictilisib -0.026 | crizotinib 0.018 | [5] -0.144 | duvelisib -0.022 | gandotinib 0.074 | tozasertib -0.011 | doramapimod 0.007 | bafetinib -0.016 | [6] 0.074

GFER (UniProt P55789)
inactive: alvocidib -0.008 | Tubastatin A 0.068 | [1] -0.152 | defactinib 0.086 | [2] -0.04 | encorafenib 0.036 | [3] -0.073 | alisertib 0.101 | [4] 0.003 | gefitinib 0 | lapatinib -0.025 | pictilisib -0.025 | crizotinib -0.008 | [5] 0.072 | duvelisib -0.087 | gandotinib -0.006 | tozasertib 0.058 | doramapimod 0.015 | bafetinib -0.065 | [6] -0.059

FUBP3 (UniProt Q96I24)
inactive: alvocidib 0.008 | Tubastatin A -0.101 | [1] -0.033 | defactinib 0.005 | [2] -0.05 | encorafenib 0.065 | [3] -0.146 | alisertib 0.048 | [4] 0.001 | gefitinib -0.033 | lapatinib 0.02 | pictilisib -0.109 | crizotinib 0.005 | [5] 0.036 | duvelisib -0.022 | gandotinib 0.019 | tozasertib 0.033 | doramapimod -0.034 | bafetinib -0.055 | [6] -0.05

FOXRED1 (UniProt Q96CU9)
inactive: alvocidib -0.031 | Tubastatin A -0.026 | [1] 0.004 | defactinib -0.002 | [2] 0.042 | encorafenib 0.009 | [3] -0.039 | alisertib 0.025 | [4] 0.072 | gefitinib -0.012 | lapatinib -0.012 | pictilisib 0.001 | crizotinib 0.003 | [5] -0.031 | duvelisib -0.016 | gandotinib 0.015 | tozasertib 0.039 | doramapimod 0.041 | bafetinib -0.016 | [6] 0.067

GCLM (UniProt P48507)
inactive: alvocidib 0.028 | Tubastatin A -0.049 | [1] 0.003 | defactinib 0.003 | [2] -0.038 | encorafenib -0.003 | [3] -0.004 | alisertib 0.05 | [4] 0.002 | gefitinib -0.023 | lapatinib -0.006 | pictilisib -0.013 | crizotinib 0.018 | [5] -0.009 | duvelisib 0.016 | gandotinib -0.004 | tozasertib -0.017 | doramapimod 0.001 | bafetinib 0.003 | [6] -0.03

FTSJ3 (UniProt Q8IY81)
inactive: alvocidib 0.031 | Tubastatin A -0.073 | [1] -0.018 | defactinib 0.026 | [2] 0.007 | encorafenib -0.028 | [3] 0.031 | alisertib 0.005 | [4] -0.036 | gefitinib 0.004 | lapatinib 0.013 | pictilisib 0.023 | crizotinib -0.037 | [5] -0.031 | duvelisib -0.01 | gandotinib -0.019 | tozasertib -0.019 | doramapimod -0.025 | bafetinib 0.013 | [6] 0.031

FUBP1 isoform 2 (UniProt Q96AE4)
inactive: alvocidib -0.038 | Tubastatin A 0.063 | [1] -0.024 | defactinib -0.028 | [2] 0.015 | encorafenib -0.017 | [3] -0.028 | alisertib 0.016 | [4] 0.008 | gefitinib 0.008 | lapatinib 0.006 | pictilisib 0.006 | crizotinib 0.012 | [5] 0.033 | duvelisib -0.006 | gandotinib 0.043 | tozasertib 0.014 | doramapimod 0.017 | bafetinib 0.034 | [6] -0.008

GDAP2 (UniProt Q9NXN4)
inactive: alvocidib 0.032 | Tubastatin A -0.153 | [1] 0.05 | defactinib -0.028 | [2] -0.022 | encorafenib -0.008 | [3] 0.07 | alisertib 0.003 | [4] -0.082 | gefitinib 0.009 | lapatinib 0.086 | pictilisib -0.089 | crizotinib -0.012 | [5] -0.005 | duvelisib 0.027 | gandotinib -0.076 | tozasertib 0.005 | doramapimod -0.063 | bafetinib -0.028 | [6] 0.005

— the supplement of paper PMC10849652
